Results reported in PMC9579051.
Results are given in words; binding and its absence hold for the method and conditions named. Binding seen in cells or lysates may run through a third protein. A yes stands for co-enrichment or nearness to the bait. Other partners may have been found.

By UniProt entry, the sequences of proteins in these tests, tags left out.
UniProt P09144: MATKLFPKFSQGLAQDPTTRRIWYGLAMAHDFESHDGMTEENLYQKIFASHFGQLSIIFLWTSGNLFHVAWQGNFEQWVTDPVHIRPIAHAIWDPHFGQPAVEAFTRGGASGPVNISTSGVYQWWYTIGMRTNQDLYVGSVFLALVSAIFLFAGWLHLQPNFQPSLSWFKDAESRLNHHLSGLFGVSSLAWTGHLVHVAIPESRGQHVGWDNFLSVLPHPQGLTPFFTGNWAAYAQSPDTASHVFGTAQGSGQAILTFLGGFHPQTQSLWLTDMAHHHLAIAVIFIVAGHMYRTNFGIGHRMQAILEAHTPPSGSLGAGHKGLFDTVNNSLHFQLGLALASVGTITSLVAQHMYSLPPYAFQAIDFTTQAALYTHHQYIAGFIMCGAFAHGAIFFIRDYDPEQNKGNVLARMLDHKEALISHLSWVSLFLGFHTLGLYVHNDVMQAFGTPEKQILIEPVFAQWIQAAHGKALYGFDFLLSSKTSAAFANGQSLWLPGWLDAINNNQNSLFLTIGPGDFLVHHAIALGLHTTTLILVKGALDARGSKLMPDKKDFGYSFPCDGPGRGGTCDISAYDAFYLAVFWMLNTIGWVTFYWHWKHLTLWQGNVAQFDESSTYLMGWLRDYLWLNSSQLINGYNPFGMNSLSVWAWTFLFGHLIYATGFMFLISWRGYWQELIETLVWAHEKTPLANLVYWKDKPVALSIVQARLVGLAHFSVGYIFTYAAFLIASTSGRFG

Biological target: PsaB fused with His20-tag after the third residue from the N-terminus (Chlamydomonas reinhardtii) (UniProt P09144)
Assay: affinity purification with mass spectrometry; His20-PsaB PSI purified on TALON and sucrose density gradient; quantitative LC-MS/MS of the PSI fractions, iBAQ values normalized to PsaB

- binding: binds weakly
B1: PsaH (protein, UniProt P13352 31-130)
chain: KYGENSRYFDLQDMENTTGSWDMYGVDEKKRYPDNQAKFFTQATDIISRRESLRALVALSGIAAIVTYGLKGAKDADLPITKGPQTTGENGKGGSVRSRL
